Measured values from paper PMC5057145.
Results are given in words; binding and its absence hold for the method and conditions named. In cells and extracts the contact can be indirect. Some results given as binding are weak or reduced against the parent protein; the word gives no strength. Sequences can lack the tags named with a protein.

Amino acid sequences for entries named in this document (tags omitted).
UniProt P17096: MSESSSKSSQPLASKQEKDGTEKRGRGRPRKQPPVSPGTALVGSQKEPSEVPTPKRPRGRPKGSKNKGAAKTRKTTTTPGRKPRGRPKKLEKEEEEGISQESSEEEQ
UniProt Q9C0K0: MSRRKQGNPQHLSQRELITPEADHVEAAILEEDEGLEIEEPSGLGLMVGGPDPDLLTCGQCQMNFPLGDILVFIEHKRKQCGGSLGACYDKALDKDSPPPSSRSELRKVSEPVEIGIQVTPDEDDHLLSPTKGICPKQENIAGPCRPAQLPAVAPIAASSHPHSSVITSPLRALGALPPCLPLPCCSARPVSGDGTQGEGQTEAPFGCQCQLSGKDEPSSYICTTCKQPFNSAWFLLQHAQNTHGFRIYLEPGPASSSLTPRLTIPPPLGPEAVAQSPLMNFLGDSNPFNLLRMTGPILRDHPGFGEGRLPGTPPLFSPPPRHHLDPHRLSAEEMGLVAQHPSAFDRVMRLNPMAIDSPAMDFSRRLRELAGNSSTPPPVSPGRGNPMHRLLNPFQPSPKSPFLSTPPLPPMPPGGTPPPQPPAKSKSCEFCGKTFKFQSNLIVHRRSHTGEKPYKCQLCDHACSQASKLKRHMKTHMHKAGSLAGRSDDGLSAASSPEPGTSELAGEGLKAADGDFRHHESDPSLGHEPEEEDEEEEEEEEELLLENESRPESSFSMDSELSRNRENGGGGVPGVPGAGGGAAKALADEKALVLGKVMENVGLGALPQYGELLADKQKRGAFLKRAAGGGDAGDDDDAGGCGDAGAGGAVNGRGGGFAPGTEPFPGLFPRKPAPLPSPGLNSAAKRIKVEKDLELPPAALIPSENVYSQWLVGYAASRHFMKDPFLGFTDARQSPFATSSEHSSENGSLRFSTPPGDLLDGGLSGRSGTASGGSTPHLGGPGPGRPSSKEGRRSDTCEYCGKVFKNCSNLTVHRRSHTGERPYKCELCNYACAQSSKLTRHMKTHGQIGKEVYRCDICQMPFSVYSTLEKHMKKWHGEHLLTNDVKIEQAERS

Target: T1, Flag-HIC1 (Hypermethylated In Cancer 1), wild type (UniProt Q14526)
T1 sequence: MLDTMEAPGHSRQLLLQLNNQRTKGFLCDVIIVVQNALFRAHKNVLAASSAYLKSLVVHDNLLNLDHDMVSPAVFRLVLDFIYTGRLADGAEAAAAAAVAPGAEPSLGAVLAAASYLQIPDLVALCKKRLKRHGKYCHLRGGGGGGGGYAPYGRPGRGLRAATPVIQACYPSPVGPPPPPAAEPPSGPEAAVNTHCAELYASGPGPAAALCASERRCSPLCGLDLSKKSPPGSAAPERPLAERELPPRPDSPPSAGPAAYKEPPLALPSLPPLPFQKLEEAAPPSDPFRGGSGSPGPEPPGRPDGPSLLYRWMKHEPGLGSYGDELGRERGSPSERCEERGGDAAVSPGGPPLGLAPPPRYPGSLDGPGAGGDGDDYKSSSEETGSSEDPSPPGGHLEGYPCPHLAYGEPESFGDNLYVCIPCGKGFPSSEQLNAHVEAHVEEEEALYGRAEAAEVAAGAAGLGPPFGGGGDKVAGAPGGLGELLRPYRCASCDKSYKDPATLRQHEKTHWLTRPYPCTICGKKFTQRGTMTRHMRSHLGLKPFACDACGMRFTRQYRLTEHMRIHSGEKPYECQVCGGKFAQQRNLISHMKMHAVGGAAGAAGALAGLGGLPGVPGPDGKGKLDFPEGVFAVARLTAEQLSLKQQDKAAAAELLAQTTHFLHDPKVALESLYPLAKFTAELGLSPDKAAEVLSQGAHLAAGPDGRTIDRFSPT
Experiment: co-IP; HEK293T co-transfected; nuclear extracts (1 mg) incubated overnight at 4 °C with M2 anti-Flag antibody; washes with high-salt (500 mM NaCl) and low salt (125 mM NaCl) buffers; Western blot

| Substance | binding |
| --- | --- |
| GFP-HMGA1 (High Mobility Group AT-Hook 1) (from UniProt P17096 1-107) | binds |
| tap-CTIP2 (Bcl11b/CTIP2 from pNTAP-CTIP2) (from UniProt Q9C0K0 1-894) | binds |
